In assay [1] the target is T1, endogenous TLR3 with C-terminal Myc-HA tags (Tlr3^t/t knock-in) (mouse (endogenous in BMDMs)) (UniProt Q99MB1).
T1 sequence: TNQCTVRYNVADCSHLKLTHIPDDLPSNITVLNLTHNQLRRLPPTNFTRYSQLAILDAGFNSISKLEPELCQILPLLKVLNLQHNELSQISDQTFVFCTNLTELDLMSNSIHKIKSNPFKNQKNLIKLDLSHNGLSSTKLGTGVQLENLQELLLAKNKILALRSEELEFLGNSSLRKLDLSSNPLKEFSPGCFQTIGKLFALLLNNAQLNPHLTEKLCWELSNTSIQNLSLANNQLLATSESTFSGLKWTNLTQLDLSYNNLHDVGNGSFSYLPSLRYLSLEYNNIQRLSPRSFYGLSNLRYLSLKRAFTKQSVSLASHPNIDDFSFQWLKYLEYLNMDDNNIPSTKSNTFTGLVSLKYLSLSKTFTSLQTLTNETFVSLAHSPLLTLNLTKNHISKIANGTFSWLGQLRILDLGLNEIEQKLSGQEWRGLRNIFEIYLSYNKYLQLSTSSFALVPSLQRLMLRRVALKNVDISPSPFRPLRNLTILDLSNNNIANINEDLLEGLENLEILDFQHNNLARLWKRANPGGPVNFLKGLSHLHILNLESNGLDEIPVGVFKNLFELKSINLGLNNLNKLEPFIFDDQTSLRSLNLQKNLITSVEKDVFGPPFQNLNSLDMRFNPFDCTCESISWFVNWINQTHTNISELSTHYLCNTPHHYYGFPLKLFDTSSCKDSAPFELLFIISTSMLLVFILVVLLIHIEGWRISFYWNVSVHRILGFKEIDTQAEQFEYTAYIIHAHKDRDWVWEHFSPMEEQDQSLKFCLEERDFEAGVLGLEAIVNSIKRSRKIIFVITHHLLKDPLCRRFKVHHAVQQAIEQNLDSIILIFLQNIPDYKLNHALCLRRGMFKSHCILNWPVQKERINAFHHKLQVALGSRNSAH
In words: co-IP; Znrf1+/+Tlr3t/t and Znrf1-/-Tlr3t/t BMDMs untreated or treated with poly(I:C) (30 μg/ml); lysates immunoprecipitated with anti-HA antibody, immunoblotting. (In general: A western blot detects proteins with antibodies after separation by electrophoresis.)

Amino acid sequences for entries named in this document (tags omitted). Residues count along the entry.
UniProt Q99LI8: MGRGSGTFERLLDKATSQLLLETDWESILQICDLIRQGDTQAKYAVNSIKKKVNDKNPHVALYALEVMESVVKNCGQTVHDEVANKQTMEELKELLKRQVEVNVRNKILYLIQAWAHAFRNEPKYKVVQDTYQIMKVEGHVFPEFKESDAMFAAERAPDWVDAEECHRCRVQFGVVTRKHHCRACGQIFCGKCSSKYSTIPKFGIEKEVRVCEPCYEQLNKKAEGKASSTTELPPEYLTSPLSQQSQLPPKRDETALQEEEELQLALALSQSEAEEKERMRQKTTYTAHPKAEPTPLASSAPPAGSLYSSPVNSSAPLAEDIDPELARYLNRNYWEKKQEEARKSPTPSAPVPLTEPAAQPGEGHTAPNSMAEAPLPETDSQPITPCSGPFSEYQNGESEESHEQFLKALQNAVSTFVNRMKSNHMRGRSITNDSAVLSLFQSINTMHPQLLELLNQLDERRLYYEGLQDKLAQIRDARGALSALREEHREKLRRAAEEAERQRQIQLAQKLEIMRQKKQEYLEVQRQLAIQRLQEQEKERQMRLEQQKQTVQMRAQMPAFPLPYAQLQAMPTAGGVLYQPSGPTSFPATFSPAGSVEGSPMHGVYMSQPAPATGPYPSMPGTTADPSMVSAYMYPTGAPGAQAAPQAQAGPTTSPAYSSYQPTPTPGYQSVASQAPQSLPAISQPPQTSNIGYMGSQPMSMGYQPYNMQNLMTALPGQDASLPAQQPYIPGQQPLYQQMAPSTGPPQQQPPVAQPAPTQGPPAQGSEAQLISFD
UniProt Q9QUN7, residues 25-784: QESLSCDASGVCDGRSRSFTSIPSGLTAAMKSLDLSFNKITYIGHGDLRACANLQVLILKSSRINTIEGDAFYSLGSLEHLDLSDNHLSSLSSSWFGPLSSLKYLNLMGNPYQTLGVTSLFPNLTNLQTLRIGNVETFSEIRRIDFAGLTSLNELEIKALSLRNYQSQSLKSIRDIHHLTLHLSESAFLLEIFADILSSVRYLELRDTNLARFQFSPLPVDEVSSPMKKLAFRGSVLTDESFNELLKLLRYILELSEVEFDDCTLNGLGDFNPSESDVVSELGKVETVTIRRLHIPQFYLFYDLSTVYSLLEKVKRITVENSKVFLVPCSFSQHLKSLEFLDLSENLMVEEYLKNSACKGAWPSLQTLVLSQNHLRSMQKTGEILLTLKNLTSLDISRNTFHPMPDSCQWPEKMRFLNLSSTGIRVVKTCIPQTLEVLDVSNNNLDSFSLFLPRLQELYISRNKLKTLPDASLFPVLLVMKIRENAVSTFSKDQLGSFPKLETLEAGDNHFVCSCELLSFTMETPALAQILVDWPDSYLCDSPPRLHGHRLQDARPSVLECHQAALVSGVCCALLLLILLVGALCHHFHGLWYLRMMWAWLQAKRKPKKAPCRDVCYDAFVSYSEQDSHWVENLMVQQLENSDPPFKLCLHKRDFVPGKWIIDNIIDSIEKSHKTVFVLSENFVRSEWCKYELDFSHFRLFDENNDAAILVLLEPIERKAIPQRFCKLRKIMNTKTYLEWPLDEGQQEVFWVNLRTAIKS

Another assay concerns the target HRS-Flag (UniProt Q99LI8). The assay can be described thus: co-IP; HEK293T cotransfected with HRS-Flag and TLR3-AcGFP or TLR9-AcGFP for 72 h; lysates immunoprecipitated with anti-M2-Flag antibody, immunoblotting.
The next assay deals with TRIF (UniProt Q80UF7). In words: semidenaturing detergent agarose gel electrophoresis (SDD-AGE); cells stimulated with poly(I:C) (30 μg/ml); lysates with or without DTT (5 mM) on 1.5% agarose gel with 0.1% SDS, immunoblotting.
In a further assay the target is T2, Flag-TLR3 (UniProt Q99MB1).
T2 sequence: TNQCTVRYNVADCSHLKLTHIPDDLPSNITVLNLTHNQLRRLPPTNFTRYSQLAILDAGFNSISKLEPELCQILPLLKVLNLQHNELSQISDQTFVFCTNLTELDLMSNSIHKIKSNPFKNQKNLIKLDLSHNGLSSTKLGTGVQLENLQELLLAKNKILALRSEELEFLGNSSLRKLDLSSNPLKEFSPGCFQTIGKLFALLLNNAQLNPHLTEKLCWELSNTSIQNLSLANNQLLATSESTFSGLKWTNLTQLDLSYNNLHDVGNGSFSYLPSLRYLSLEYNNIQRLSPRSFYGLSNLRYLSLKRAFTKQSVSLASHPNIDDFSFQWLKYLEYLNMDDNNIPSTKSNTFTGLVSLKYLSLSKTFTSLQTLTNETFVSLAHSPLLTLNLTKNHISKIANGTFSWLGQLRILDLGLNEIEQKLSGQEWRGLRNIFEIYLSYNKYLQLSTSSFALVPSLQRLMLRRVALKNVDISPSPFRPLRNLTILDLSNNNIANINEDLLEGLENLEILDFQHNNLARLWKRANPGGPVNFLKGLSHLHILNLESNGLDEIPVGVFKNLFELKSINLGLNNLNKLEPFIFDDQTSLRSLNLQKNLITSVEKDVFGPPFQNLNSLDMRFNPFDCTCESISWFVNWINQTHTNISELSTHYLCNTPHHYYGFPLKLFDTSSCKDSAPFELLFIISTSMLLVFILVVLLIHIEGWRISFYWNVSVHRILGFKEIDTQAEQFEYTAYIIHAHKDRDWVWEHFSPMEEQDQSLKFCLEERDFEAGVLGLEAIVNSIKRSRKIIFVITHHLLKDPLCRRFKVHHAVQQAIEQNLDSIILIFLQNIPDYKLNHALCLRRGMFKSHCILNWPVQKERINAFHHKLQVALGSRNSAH
The assay can be described thus: co-IP; HEK293T cotransfected with Flag-TLR2 or Flag-TLR3 and ZNRF1-Myc; reciprocal immunoprecipitation, immunoblotting.

For a further assay, the target named is Flag-TLR2 (UniProt Q9QUN7). Described as above.
A further assay addresses T3, TLR3-AcGFP (mouse) (UniProt Q99MB1).
T3 sequence: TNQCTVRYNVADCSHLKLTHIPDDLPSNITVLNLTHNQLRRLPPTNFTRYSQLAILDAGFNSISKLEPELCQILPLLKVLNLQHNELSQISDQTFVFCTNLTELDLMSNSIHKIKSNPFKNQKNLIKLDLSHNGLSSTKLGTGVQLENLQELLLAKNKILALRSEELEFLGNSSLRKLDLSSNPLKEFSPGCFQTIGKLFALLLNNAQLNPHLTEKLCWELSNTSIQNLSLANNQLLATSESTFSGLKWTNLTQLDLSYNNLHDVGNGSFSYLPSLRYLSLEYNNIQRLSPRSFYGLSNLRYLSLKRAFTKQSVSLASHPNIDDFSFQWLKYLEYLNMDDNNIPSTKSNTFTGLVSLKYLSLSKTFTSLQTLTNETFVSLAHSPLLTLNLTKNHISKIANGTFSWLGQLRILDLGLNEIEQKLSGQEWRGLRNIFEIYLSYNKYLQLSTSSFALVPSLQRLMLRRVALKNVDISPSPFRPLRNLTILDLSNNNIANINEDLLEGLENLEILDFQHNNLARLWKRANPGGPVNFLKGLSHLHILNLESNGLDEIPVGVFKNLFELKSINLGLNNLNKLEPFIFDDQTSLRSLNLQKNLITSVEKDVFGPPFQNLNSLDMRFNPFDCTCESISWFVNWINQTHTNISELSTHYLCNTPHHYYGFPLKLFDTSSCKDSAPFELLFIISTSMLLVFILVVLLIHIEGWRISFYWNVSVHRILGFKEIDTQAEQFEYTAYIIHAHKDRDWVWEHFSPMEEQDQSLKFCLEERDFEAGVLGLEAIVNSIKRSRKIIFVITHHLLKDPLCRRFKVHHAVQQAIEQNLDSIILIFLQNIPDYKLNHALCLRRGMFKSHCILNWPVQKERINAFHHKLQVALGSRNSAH
The assay can be described thus: co-IP; HEK293T cotransfected with AcGFP-tagged TLR3 and Flag-tagged full-length or truncated ZNRF1 for 72 h; immunoprecipitation followed by immunoblotting.

The text below walks through data of PMC10174191.

No constants are given. Whether binding was seen depends on the method and setting. For some of these results: In cells and extracts the contact can be indirect. Some binding calls cover weakened binding; strength is not graded here. For some of these results: Sequences can lack the tags named with a protein.

For “HRS, endogenous (from UniProt Q99LI8 1-775)”, the binding result in assay [1] is recorded as “binds”. “TLR3-AcGFP (from UniProt Q99MB1 26-905) (receptor)”: the binding entry with HRS-Flag was “binds”.

B1: TRIF (protein, UniProt Q80UF7 1-732)
chain: MDNPGPSLRGAFGILGALERDRLTHLKHKLGSLCSGSQESKLLHAMVLLALGQDTEARVSLESLKMNTVAQLVAHQWADMETTEGPEEPPDLSWTVARLYHLLAEENLCPASTRDMAYQVALRDFASQGDHQLGQLQNEAWDRCSSDIKGDPSGFQPLHSHQGSLQPPSASPAVTRSQPRPIDTPDWSWGHTLHSTNSTASLASHLEISQSPTLAFLSSHHGTHGPSKLCNTPLDTQEPQLVPEGCQEPEEISWPPSVETSVSLGLPHEISVPEVSPEEASPILPDALAAPDTSVHCPIECTELSTNSRSPLTSTTESVGKQWPITSQRSPQVPVGDDSLQNTTSSSPPAQPPSLQASPKLPPSPLSSASSPSSYPAPPTSTSPVLDHSETSDQKFYNFVVIHARADEQVALRIREKLETLGVPDGATFCEEFQVPGRGELHCLQDAIDHSGFTILLLTASFDCSLSLHQINHALMNSLTQSGRQDCVIPLLPLECSQAQLSPDTTRLLHSIVWLDEHSPIFARKVANTFKTQKLQAQRVRWKKAQEARTLKEQSIQLEAERQNVAAISAAYTAYVHSYRAWQAEMNKLGVAFGKNLSLGTPTPSWPGCPQPIPSHPQGGTPVFPYSPQPPSFPQPPCFPQPPSFPQPPSFPLPPVSSPQSQSFPSASSPAPQTPGPQPLIIHHAQMVQLGVNNHMWGHTGAQSSDDKTECSENPCMGPLTDQGEPLLETPE
Regarding B1, the binding result in the assay with TRIF was “binds”.

B2: TLR9-AcGFP (receptor, UniProt Q9EQU3 26-1032)
chain: LGTLPAFLPCELKPHGLVDCNWLFLKSVPRFSAAASCSNITRLSLISNRIHHLHNSDFVHLSNLRQLNLKWNCPPTGLSPLHFSCHMTIEPRTFLAMRTLEELNLSYNGITTVPRLPSSLVNLSLSHTNILVLDANSLAGLYSLRVLFMDGNCYYKNPCTGAVKVTPGALLGLSNLTHLSLKYNNLTKVPRQLPPSLEYLLVSYNLIVKLGPEDLANLTSLRVLDVGGNCRRCDHAPNPCIECGQKSLHLHPETFHHLSHLEGLVLKDSSLHTLNSSWFQGLVNLSVLDLSENFLYESITHTNAFQNLTRLRKLNLSFNYRKKVSFARLHLASSFKNLVSLQELNMNGIFFRLLNKYTLRWLADLPKLHTLHLQMNFINQAQLSIFGTFRALRFVDLSDNRISGPSTLSEATPEEADDAEQEELLSADPHPAPLSTPASKNFMDRCKNFKFTMDLSRNNLVTIKPEMFVNLSRLQCLSLSHNSIAQAVNGSQFLPLTNLQVLDLSHNKLDLYHWKSFSELPQLQALDLSYNSQPFSMKGIGHNFSFVTHLSMLQSLSLAHNDIHTRVSSHLNSNSVRFLDFSGNGMGRMWDEGGLYLHFFQGLSGLLKLDLSQNNLHILRPQNLDNLPKSLKLLSLRDNYLSFFNWTSLSFLPNLEVLDLAGNQLKALTNGTLPNGTLLQKLDVSSNSIVSVVPAFFALAVELKEVNLSHNILKTVDRSWFGPIVMNLTVLDVRSNPLHCACGAAFVDLLLEVQTKVPGLANGVKCGSPGQLQGRSIFAQDLRLCLDEVLSWDCFGLSLLAVAVGMVVPILHHLCGWDVWYCFHLCLAWLPLLARSRRSAQTLPYDAFVVFDKAQSAVADWVYNELRVRLEERRGRRALRLCLEDRDWLPGQTLFENLWASIYGSRKTLFVLAHTDRVSGLLRTSFLLAQQRLLEDRKDVVVLVILRPDAHRSRYVRLRQRLCRQSVLFWPQQPNGQGGFWAQLSTALTRDNRHFYNQNFCRGPTAE
In the case of B2, the binding result with HRS-Flag was “binds”.

B3: ZNRF1-Myc (enzyme, UniProt Q91V17 1-227)
chain: MGGKQSTAARSRGPFPGVSTDDSAVPPPGGAPHFGHYRTGGGAMGLRSRSVSSVAGMGMDPSTAGGVPFSLYTPASRGTGDSERAPGGGGSTSDSTYAHGNGYQETGGGHHRDGMLYLGSRASLADALPLHIAPRWFSSHSGFKCPICSKSVASDEMEMHFIMCLSKPRLSYNDDVLTKDAGECVICLEELLQGDTIARLPCLCIYHKSCIDSWFEVNRSCPEHPAD
As to B3, the binding result with Flag-TLR3 is recorded as “binds”; in the assay with Flag-TLR2, “no binding”.

B4: ZNRF1-Flag, full-length (enzyme, UniProt Q91V17 1-227)
chain: MGGKQSTAARSRGPFPGVSTDDSAVPPPGGAPHFGHYRTGGGAMGLRSRSVSSVAGMGMDPSTAGGVPFSLYTPASRGTGDSERAPGGGGSTSDSTYAHGNGYQETGGGHHRDGMLYLGSRASLADALPLHIAPRWFSSHSGFKCPICSKSVASDEMEMHFIMCLSKPRLSYNDDVLTKDAGECVICLEELLQGDTIARLPCLCIYHKSCIDSWFEVNRSCPEHPAD
On to B4, for which, in the assay with TLR3-AcGFP (mouse), the binding entry is “binds”.
